No constants are given. Whether binding was seen depends on the method and setting. Some results given as binding are weak or reduced against the parent protein; the word gives no strength.
What was measured:
IL2 (R&D, 202-IL) = IL2 (R&D, 202-IL) (UniProt P60568); test: ELISA
[1] = target: biotinylated recombinant PD1 (PD1-HisAvi, Acro Biosystems PD1-H82E4) (UniProt Q15116); test: ELISA

Amino acid sequences for entries named in this document (tags omitted). Residues count along the entry.
UniProt P60568, residues 21-153: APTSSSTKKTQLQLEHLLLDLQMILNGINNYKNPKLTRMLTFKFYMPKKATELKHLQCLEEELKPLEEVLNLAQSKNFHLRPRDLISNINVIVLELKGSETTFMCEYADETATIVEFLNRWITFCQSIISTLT
UniProt Q15116, residues 25-167: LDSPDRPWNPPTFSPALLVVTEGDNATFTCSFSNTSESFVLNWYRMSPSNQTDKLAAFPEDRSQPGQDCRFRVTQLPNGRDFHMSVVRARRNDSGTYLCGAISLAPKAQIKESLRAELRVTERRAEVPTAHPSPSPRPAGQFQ

binding (IL2 (R&D, 202-IL)) | binding [1] | Binder
binds | binds | AB003155_2B07v10 scFv (AF005042) (scFv) scFv: MSTSTQVQLVQSGAEVKKPGASVKVSCKASGETFTRYYVHWVRQAPGQGLEWMGIINPSGGYASYAQKFQGRVTMTRDTSTSTVYMELSSLRSEDTAVYYCAAGLFIWGQGTLVTVSSGGGGSGGGGSGGGGSGGGGSDIQMTQSPSSLSASVGDRVTITCRASQSIGRWLAWYQQKPGKAPKLLIYSASNLETGVPSRFSGSGSGTDFTLTISSLQPEDFATYYCQQYNRFPVTFGPGTKVDIKEQKLISEEDLGSGLNDIFEAQKIEWHEGKPIPNPLLGLDST
– | binds | AB003200_2B05v1 scFv (AF005131) (scFv) scFv: MSTSTQVQLVQSGAEVKKPGASVKVSCKASGETFTNYYIHWVRQAPGQGLEWMGVINPRAGYTSYALKFQGRVTMTRDTSTSTVYMELSSLRSEDTAVYYCAGGWEDWGQGTLVTVSSGGGGSGGGGSGGGGSGGGGSDIQMTQSPSSLSASVGDRVTITCRISQSISSWLAWYQQKPGKAPKLLIYSASSLQSGVPSRFSGSGSGTDFTLTISSLQPEDFATYYCQQSFTSPITFGQGTRLEIKEQKLISEEDLGSGLNDIFEAQKIEWHEGKPIPNPLLGLDST
– | binds | AB003201_2B05v2 scFv (AF005132) (scFv) scFv: MSTSTQVQLVQSGAEVKKPGASVKVSCKASGGTFTNYYIHWVRQAPGQGLEWMGIIDPRAGYTSYALKFQGRVTMTRDTSTSTVYMELSSLRSEDTAVYYCAGGWEDWGQGTLVTVSSGGGGSGGGGSGGGGSGGGGSDIQMTQSPSSLSASVGDRVTITCRISQSISSWLAWYQQKPGKAPKLLIYSASSLQSGVPSRFSGSGSGTDFTLTISSLQPEDFATYYCQQSFTSPITFGQGTRLEIKEQKLISEEDLGSGLNDIFEAQKIEWHEGKPIPNPLLGLDST
– | binds | AB003202_2B05v3 scFv (AF005133) (scFv) scFv: MSTSTQVQLVQSGAEVKKPGASVKVSCKASGSTFTNYYIHWVRQAPGQGLEWMGIIDPRAGYTSYALKFQGRVTMTRDTSTSTVYMELSSLRSEDTAVYYCAGGWEDWGQGTLVTVSSGGGGSGGGGSGGGGSGGGGSDIQMTQSPSSLSASVGDRVTITCRISQSISSFLAWYQQKPGKAPKLLIYSASSLQSGVPSRFSGSGSGTDFTLTISSLQPEDFATYYCQQSFTSPITFGQGTRLEIKEQKLISEEDLGSGLNDIFEAQKIEWHEGKPIPNPLLGLDST
– | binds | AB003209_2B05v4 scFv (AF005140) (scFv) scFv: MSTSTQVQLVQSGAEVKKPGASVKVSCKASGETFTNYYIHWVRQAPGQGLEWMGIIDPRAGYTSYALKFQGRVTMTRDTSTSTVYMELSSLRSEDTAVYYCAGGWEDWGQGTLVTVSSGGGGSGGGGSGGGGSGGGGSDIQMTQSPSSLSASVGDRVTITCRISQSISSFLAWYQQKPGKAPKLLIYSASSLQSGVPSRFSGSGSGTDFTLTISSLQPEDFATYYCQQSFTSPITFGQGTRLEIKEQKLISEEDLGSGLNDIFEAQKIEWHEGKPIPNPLLGLDST
binds | binds | AB002427_2A11v5 scFv (AF005149) (scFv, V domains shown) VH: QVQLVQSGAEVKKPGASVKVSCKASGHTFTRYYMHWVRQAPGQGLEWMGIINPSGGYATYAQKFQGRVTMTRDTSTSTVYMELSSLRSEDTAVYYCASGLFIWGQGTLVTVSS VL: DIQMTQSPSSLSASVGDRVTITCRASQSINSWLAWYQQKPGKAPKLLIYATSTLESGVPSRFSGSGSGTDFTLTISSLQPEDFATYYCQQSYRFPVTFGQGTKVEIK
binds | binds | AB002417_2A11v4 scFv (AF005148) (scFv, V domains shown) VH: QVQLVQSGAEVKKPGASVKVSCKASGHTFTRYYMHWVRQAPGQGLEWMGIINPSGGYATYAQKFQGRVTMTRDTSTSTVYMELSSLRSEDTAVYYCASGLFIWGQGTLVTVSS VL: DIQMTQSPSSLSASVGDRVTITCRASQSINSWLAWYQQKPGKAPKLLIYATSTLESGVPSRFSGSGSGTDFTLTISSLQPEDFATYYCQQYYSFPVTFGQGTKVEIK
binds | binds | AB003021_2A11v7 scFv (AF005103) (scFv) scFv: MSTSTQVQLVQSGAEVKKPGASVKVSCKASGFTFTRYYMHWVRQAPGQGLEWMGVINPSGGYATYAQKFQGRVTMTRDTSTSTVYMELSSLRSEDTAVYYCASGWDVWGQGTLVTVSSGGGGSGGGGSGGGGSGGGGSDIQMTQSPSSLSASVGDRVTITCRASQSISSWLAWYQQKPGKAPKLLIYATSTLESGVPSRFSGSGSGTDFTLTISSLQPEDFATYYCQQSYSSPVTFGQGTKVEIKEQKLISEEDLGSGLNDIFEAQKIEWHEGKPIPNPLLGLDST

Further lines, the binder ahead of its results:

Binder | binding (IL2 (R&D, 202-IL)) | binding [1]
AB002022_2B07v1 scFv (AF002829) (scFv) scFv: MSTSTEQKLISEEDLQVQLVQSGAEVKKPGASVKVSCKASGDTFTRHYVHWVRQAPGQGLEWMGIINPSGGYASYAQKFQGRVTMTRDTSTSTVYMELSSLRSEDTAVYYCAAGLFIWGQGTLVTVSSASGGGGSGGGGSGGGGSHASDIQMTQSPSSLSASVGDRVTITCRASQSIGRWLAWYQQKPGKAPKLLIYSASNLETGVPSRFSGSGSGTDFTLTISSLQPEDFATYYCQQYESFPVTFGPGTKVDIKGKPIPNPLLGLDST | binds | binds
AB002293_2B07v2 scFv (AF003676) (scFv) scFv: MSTSTQVQLVQSGAEVKKPGASVKVSCKASGDTFTRYYVHWVRQAPGQGLEWMGIINPSGGYASYAQKFQGRVTMTRDTSTSTVYMELSSLRSEDTAVYYCAAGLFIWGQGTLVTVSSASGGGGSGGGGSGGGGSHASDIQMTQSPSSLSASVGDRVTITCRASQSIGRWLAWYQQKPGKAPKLLIYSASNLETGVPSRFSGSGSGTDFTLTISSLQPEDFATYYCQQYNSFPVTFGPGTKVDIKAAAGSGSEQKLISEEDLGKPIPNPLLGLDST | binds | binds
AB002347_2B07v7 scFv (AF003730) (scFv) scFv: MSTSTQVQLVQSGAEVKKPGASVKVSCKASGDTFTRYYVHWVRQAPGQGLEWMGIINPSGGYASYAQKFQGRVTMTRDTSTSTVYMELSSLRSEDTAVYYCAAGLFIWGQGTLVTVSSASGGGGSGGGGSGGGGSHASDIQMTQSPSSLSASVGDRVTITCRASQSIGRYLAWYQQKPGKAPKLLIYSASNLETGVPSRFSGSGSGTDFTLTISSLQPEDFATYYCQQYNRFPVTFGPGTKVDIKAAAGSGSEQKLISEEDLGKPIPNPLLGLDST | binds | binds
AB002345_2B07v6 scFv (AF003728) (scFv) scFv: MSTSTQVQLVQSGAEVKKPGASVKVSCKASGDTFTRYYVHWVRQAPGQGLEWMGIINPSGGYASYAQKFQGRVTMTRDTSTSTVYMELSSLRSEDTAVYYCAAGLFIWGQGTLVTVSSASGGGGSGGGGSGGGGSHASDIQMTQSPSSLSASVGDRVTITCRASQSIGRYLAWYQQKPGKAPKLLIYSASNLETGVPSRFSGSGSGTDFTLTISSLQPEDFATYYCQQYNSFPVTFGPGTKVDIKAAAGSGSEQKLISEEDLGKPIPNPLLGLDST | binds | binds
AB002353_2B07v9 scFv (AF003736) (scFv) scFv: MSTSTQVQLVQSGAEVKKPGASVKVSCKASGDTFTRYYVHWVRQAPGQGLEWMGIINPSGGYASYAQKFQGRVTMTRDTSTSTVYMELSSLRSEDTAVYYCAAGLFIWGQGTLVTVSSASGGGGSGGGGSGGGGSHASDIQMTQSPSSLSASVGDRVTITCRASQSIGRWLAWYQQKPGKAPKLLIYSASNLETGVPSRFSGSGSGTDFTLTISSLQPEDFATYYCQQYESFPVTFGPGTKVDIKAAAGSGSEQKLISEEDLGKPIPNPLLGLDST | binds | binds
AB002348_2B07v8 scFv (AF003731) (scFv) scFv: MSTSTQVQLVQSGAEVKKPGASVKVSCKASGDTFTRYYVHWVRQAPGQGLEWMGIINPSGGYASYAQKFQGRVTMTRDTSTSTVYMELSSLRSEDTAVYYCAAGLFIWGQGTLVTVSSASGGGGSGGGGSGGGGSHASDIQMTQSPSSLSASVGDRVTITCRASQSIGRYLAWYQQKPGKAPKLLIYYASNLETGVPSRFSGSGSGTDFTLTISSLQPEDFATYYCQQYNSFPVTFGPGTKVDIKAAAGSGSEQKLISEEDLGKPIPNPLLGLDST | binds | binds
AB002342_2B07v5 scFv (AF003725) (scFv) scFv: MSTSTQVQLVQSGAEVKKPGASVKVSCKASGDTFTRYYVHWVRQAPGQGLEWMGIINPSGGYASYAQKFQGRVTMTRDTSTSTVYMELSSLRSEDTAVYYCAAGLFIWGQGTLVTVSSASGGGGSGGGGSGGGGSHASDIQMTQSPSSLSASVGDRVTITCRASQSIGRWLAWYQQKPGKAPKLLIYSASNLETGVPSRFSGSGSGTDFTLTISSLQPEDFATYYCQQYERFPVTFGPGTKVDIKAAAGSGSEQKLISEEDLGKPIPNPLLGLDST | binds | binds
AB002326_2B07v3 scFv (AF003709) (scFv) scFv: MSTSTQVQLVQSGAEVKKPGASVKVSCKASGDTFTRYYVHWVRQAPGQGLEWMGIINPSGGYASYAQKFQGRVTMTRDTSTSTVYMELSSLRSEDTAVYYCAAGLFIWGQGTLVTVSSASGGGGSGGGGSGGGGSHASDIQMTQSPSSLSASVGDRVTITCRASQSIGSWLAWYQQKPGKAPKLLIYSASNLETGVPSRFSGSGSGTDFTLTISSLQPEDFATYYCQQYNSFPVTFGPGTKVDIKAAAGSGSEQKLISEEDLGKPIPNPLLGLDST | binds | binds
AB002328_2B07v4 scFv (AF003711) (scFv, V domains shown) VH: QVQLVQSGAEVKKPGASVKVSCKASGDTFTRYYVHWVRQAPGQGLEWMGIINPSGGYASYAQKFQGRVTMTRDTSTSTVYMELSSLRSEDTAVYYCAAGLFIWGQGTLVTVSS VL: DIQMTQSPSSLSASVGDRVTITCRASQSIGRWLAWYQQKPGKAPKLLIYSASNLETGVPSRFSGSGSGTDFTLTISSLQPEDFATYYCQQYNRFPVTFGPGTKVDIK | binds | binds
AB002413_2A11v3 scFv (AF005147) (scFv, V domains shown) VH: QVQLVQSGAEVKKPGASVKVSCKASGHTFTRYYMHWVRQAPGQGLEWMGIINPSGGYATYAQKFQGRVTMTRDTSTSTVYMELSSLRSEDTAVYYCASGLFIWGQGTLVTVSS VL: DIQMTQSPSSLSASVGDRVTITCRASQSINSWLAWYQQKPGKAPKLLIYATSTLESGVPSRFSGSGSGTDFTLTISSLQPEDFATYYCQQYYRFPVTFGQGTKVEIK | binds | binds

Source: patent publication US20240366776A1 (Hoffmann-La Roche, published 2024)
